Some of the results follow.
How the values were obtained:
Test in all cases: log2 fold change, soluble protein after heating vs DMSO (PISA); higher = thermal stabilisation; K562 cells, 10 uM, 30 min; active = over 0.2 and 3.5 SD of the protein, either way, in both replicates (recomputed)
[1] = compound: CC1=C(C=C(C=C1)NC(=O)C2=CC(=CC=C2)C(C)(C)C#N)NC3=CC4=C(C=C3)N=CN(C4=O)C
Method in brief: (§1)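 Values are thermal stability changes relative to control samples and are taken from duplicates. They are stated as log2 fold changes. Before quantification by TMTpro 16plex LC-MS/MS with equalised channel sums, K562 cells at 2×10^6 cells/mL were treated with 10 μM compound for 30 min, heated in aliquots for 3 min across 48°C-58°C, pooled, extracted in PBS with 0.5% NP-40 at 4°C, and centrifuged at 21,000xg for 90 min to give the soluble supernatant.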

Amino acid sequences for entries named in this document (tags omitted). A change or cut given only in a name is not applied to a line headed by its entry.
UniProt Q07666, whole entry, looked up: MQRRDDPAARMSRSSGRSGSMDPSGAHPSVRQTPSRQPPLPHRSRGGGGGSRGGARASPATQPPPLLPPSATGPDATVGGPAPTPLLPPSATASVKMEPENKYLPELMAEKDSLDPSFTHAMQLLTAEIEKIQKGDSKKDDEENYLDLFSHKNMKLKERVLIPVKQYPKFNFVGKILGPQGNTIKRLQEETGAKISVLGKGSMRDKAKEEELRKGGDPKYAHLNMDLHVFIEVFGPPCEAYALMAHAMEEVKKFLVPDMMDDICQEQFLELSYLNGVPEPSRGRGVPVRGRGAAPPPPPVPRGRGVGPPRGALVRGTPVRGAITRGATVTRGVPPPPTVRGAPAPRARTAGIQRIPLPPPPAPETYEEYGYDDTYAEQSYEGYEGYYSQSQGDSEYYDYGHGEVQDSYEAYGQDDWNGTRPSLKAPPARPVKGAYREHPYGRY
UniProt P23276: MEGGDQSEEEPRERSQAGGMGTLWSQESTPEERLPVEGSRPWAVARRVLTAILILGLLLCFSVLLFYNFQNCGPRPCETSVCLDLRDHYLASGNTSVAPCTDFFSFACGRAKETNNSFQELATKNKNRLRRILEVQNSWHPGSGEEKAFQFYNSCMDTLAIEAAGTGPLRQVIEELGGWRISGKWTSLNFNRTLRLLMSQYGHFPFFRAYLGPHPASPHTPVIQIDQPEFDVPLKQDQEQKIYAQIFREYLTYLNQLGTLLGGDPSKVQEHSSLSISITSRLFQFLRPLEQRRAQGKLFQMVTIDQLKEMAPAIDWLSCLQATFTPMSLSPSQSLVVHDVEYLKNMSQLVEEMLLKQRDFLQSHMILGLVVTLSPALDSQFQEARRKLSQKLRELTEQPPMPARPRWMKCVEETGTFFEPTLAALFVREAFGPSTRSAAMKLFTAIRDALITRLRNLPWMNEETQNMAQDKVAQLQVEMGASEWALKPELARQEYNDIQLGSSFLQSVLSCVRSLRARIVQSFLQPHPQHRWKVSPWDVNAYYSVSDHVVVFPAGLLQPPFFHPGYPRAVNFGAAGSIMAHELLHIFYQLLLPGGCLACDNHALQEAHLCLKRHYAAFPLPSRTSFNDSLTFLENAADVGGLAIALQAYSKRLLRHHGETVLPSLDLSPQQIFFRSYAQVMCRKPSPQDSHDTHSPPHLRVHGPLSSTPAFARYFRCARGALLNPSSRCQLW
UniProt Q9NVR0: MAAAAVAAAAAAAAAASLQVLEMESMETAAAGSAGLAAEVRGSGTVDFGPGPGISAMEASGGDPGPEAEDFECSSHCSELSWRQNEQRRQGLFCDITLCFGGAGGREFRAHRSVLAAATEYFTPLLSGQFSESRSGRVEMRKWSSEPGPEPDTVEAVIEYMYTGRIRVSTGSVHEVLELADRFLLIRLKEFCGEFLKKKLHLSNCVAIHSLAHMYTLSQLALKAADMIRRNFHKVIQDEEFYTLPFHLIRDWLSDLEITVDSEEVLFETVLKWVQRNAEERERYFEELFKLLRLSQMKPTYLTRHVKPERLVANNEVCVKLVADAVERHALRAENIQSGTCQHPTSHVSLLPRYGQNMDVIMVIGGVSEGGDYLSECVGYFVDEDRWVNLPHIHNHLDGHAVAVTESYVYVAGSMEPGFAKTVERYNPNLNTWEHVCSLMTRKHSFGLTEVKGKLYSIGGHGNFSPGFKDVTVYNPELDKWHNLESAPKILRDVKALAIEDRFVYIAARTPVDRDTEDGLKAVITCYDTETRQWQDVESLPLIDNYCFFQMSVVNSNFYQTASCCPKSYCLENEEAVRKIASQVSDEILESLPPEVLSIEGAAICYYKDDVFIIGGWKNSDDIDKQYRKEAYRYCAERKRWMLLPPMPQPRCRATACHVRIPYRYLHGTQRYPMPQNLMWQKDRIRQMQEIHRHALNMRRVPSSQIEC
UniProt Q7L273: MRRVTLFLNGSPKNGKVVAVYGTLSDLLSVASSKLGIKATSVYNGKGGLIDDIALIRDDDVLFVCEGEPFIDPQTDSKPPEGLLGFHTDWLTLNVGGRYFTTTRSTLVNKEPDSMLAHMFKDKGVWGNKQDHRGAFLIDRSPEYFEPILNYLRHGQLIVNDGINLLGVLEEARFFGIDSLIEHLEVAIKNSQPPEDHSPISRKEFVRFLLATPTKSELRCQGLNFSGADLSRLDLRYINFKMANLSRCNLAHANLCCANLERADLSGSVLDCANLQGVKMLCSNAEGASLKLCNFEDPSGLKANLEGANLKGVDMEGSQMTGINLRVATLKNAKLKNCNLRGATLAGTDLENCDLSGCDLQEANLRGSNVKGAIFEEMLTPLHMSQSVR
UniProt Q8IVT5: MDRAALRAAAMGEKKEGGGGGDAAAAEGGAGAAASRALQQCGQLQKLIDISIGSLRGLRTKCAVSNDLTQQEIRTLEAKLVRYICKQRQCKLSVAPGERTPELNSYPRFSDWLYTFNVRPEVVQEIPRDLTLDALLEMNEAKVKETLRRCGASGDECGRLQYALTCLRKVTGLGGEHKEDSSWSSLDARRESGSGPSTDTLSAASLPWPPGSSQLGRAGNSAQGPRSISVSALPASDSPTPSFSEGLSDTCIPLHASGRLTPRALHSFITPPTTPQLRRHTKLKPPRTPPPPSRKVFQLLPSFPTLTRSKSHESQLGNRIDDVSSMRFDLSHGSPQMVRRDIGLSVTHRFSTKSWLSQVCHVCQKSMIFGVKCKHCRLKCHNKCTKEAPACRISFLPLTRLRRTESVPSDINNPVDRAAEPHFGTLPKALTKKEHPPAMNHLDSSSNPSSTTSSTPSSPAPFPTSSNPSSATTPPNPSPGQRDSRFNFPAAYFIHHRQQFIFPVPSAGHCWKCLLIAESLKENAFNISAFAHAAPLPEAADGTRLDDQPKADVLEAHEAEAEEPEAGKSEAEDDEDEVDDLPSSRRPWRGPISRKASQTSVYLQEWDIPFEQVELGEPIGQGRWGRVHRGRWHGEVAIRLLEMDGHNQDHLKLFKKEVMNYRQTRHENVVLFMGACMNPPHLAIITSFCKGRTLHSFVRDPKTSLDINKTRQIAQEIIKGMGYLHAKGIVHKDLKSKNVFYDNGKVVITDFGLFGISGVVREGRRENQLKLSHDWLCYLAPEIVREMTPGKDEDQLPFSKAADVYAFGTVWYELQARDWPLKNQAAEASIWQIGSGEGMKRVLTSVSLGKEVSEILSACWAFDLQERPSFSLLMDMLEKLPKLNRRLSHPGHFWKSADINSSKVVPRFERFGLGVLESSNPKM
UniProt Q9NSK0: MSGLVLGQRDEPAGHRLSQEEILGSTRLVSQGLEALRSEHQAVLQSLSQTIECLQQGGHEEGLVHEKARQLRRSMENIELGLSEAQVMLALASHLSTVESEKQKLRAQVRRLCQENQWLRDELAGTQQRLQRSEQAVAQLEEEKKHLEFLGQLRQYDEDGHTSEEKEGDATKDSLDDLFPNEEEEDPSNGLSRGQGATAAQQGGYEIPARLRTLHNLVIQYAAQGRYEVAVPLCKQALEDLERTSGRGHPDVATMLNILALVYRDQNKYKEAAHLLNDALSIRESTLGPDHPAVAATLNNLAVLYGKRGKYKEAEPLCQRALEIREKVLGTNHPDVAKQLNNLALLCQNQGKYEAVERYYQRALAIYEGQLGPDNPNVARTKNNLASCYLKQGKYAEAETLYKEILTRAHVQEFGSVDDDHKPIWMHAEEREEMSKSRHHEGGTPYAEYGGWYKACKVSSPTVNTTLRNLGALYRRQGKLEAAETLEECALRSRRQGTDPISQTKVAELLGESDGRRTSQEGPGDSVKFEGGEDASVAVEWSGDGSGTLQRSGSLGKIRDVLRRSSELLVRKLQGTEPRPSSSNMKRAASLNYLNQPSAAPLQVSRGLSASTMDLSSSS
UniProt Q9H3F6: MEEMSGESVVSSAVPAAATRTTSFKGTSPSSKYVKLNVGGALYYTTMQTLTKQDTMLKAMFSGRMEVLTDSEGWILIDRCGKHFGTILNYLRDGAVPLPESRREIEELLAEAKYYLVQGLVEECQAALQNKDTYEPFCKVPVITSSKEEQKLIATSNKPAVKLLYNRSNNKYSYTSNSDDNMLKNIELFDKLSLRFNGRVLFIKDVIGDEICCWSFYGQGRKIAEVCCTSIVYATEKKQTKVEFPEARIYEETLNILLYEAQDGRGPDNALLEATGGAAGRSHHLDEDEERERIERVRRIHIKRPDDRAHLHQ
UniProt P17275: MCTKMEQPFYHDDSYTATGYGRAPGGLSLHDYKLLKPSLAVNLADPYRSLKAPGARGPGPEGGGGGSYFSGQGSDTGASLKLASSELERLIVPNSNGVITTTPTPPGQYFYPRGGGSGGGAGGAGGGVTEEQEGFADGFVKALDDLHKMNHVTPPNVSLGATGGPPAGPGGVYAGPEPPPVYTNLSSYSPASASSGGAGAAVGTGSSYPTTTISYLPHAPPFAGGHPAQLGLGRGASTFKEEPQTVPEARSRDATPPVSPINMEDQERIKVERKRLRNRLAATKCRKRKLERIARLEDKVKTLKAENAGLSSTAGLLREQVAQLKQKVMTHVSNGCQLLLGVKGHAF

[2] = compound: CC1=C(C=C(C=C1)NC(=O)C2=CC(=CC=C2)N(C)C)NC(=O)C3=CC=C(C=C3)O
Method in brief: as §1

[3] = compound: CC1=CC=C(C=C1)SC2=C3C=C(SC3=CN=C2)C(=O)N
Method in brief: as §1

[4] = compound: CC1=NC(=CC=C1)C2=C(N=C(N2)C(C)(C)C)C3=CC4=NC=CN=C4C=C3
Method in brief: as §1

Nexturastat A = compound: CCCCN(Cc1ccc(C(=O)NO)cc1)C(=O)Nc1ccccc1 [Nexturastat A]
Method in brief: as §1

vemurafenib = compound: CCCS(=O)(=O)Nc1ccc(F)c(C(=O)c2c[nH]c3ncc(-c4ccc(Cl)cc4)cc23)c1F [vemurafenib]
Method in brief: as §1

[5] = compound: CCCS(=O)(=O)Nc1ccc(F)c(C(=O)c2c[nH]c3ncc(Cl)cc23)c1F
Method in brief: as §1

[6] = compound: CCCc1cc(C)[nH]c(=O)c1CNC(=O)c1cc(-c2ccnc(N3CCN(C)CC3)c2)cc2c1cnn2C(C)C
Method in brief: as §1

givinostat = compound: CCN(CC)Cc1ccc2cc(COC(=O)Nc3ccc(C(=O)NO)cc3)ccc2c1 [givinostat]
Method in brief: as §1

barasertib = compound: CCN(CCCOc1ccc2c(Nc3cc(CC(=O)Nc4cccc(F)c4)[nH]n3)ncnc2c1)CCOP(=O)(O)O [barasertib]
Method in brief: as §1

[7] = compound: CC[C@@H]1C(=O)N(C)c2cnc(Nc3ccc(C(=O)NC4CCN(C)CC4)cc3OC)nc2N1C1CCCC1
Method in brief: as §1

volasertib = compound: CC[C@@H]1C(=O)N(C)c2cnc(Nc3ccc(C(=O)N[C@H]4CC[C@H](N5CCN(CC6CC6)CC5)CC4)cc3OC)nc2N1C(C)C [volasertib]
Method in brief: as §1

[8] = compound: CC[C@H](C)N1C=C(C2=C(C=C(C=C21)C3=CN=C(C=C3)N4CCNCC4)C(=O)NCC5=C(C=C(NC5=O)C)C)C
Method in brief: as §1

epoxomicin = compound: CC[C@H](C)[C@@H](C(=O)N[C@@H]([C@@H](C)O)C(=O)N[C@@H](CC(C)C)C(=O)[C@]1(CO1)C)NC(=O)[C@H]([C@@H](C)CC)N(C)C(=O)C [epoxomicin]
Method in brief: as §1

[9] = compound: CCn1cc(-c2ccnc3[nH]c(-c4cccc(CN(C)C)c4)cc23)c(-c2ccc(NC(=O)N(C)C)cc2)n1
Method in brief: as §1

[10] = compound: CN(C)CC(=O)Nc1ccc2[nH]c(=O)c3ccccc3c2c1
Method in brief: as §1

[11] = compound: CN1C2=C(C3=C1C(=O)N(N=C3)CC4=CC(=CC=C4)N)SC(=C2)S(=O)C
Method in brief: as §1

[12] = compound: CN1CCC(CNc2ccc3ncc(-c4cccc(OC(F)(F)F)c4)n3n2)CC1
Method in brief: as §1

[13] = compound: CCn1c(C(=O)N(C2CC2)C2CC2)cc2c3c(ncn3C)c(Nc3cc(C)n(C)n3)nc21
Method in brief: as §1

rosiglitazone = compound: CN(CCOC1=CC=C(C=C1)C[C@H]2C(=O)NC(=O)S2)C3=CC=CC=N3 (racemic) [rosiglitazone]
Method in brief: as §1

Measured: log2 fold change

KRAS isoform 2 (UniProt P01116)
inactive: [1] -0.034 | [2] 0.046 | [3] -0.023 | [4] -0.026 | Nexturastat A -0.063 | vemurafenib -0.03 | [5] -0.093 | [6] -0.073 | givinostat 0.014 | barasertib 0.003 | [7] 0.08 | volasertib 0.026 | [8] -0.047 | epoxomicin 0.027 | [9] -0.073 | [10] 0 | [11] 0.062 | [12] 0.141

KHDRBS1 (UniProt Q07666)
inactive: [1] 0.086 | [2] -0.006 | [3] -0.082 | [4] 0.111 | Nexturastat A 0.077 | vemurafenib 0.075 | [5] -0.068 | [6] 0.034 | givinostat 0.005 | barasertib -0.106 | [7] 0.148 | volasertib 0.106 | [8] 0.074 | epoxomicin -0.029 | [9] -0.096 | [10] -0.007 | [11] -0.04 | [12] 0.116

KEL (UniProt P23276)
inactive: [1] -0.004 | [2] -0.061 | [3] 0.117 | [4] 0.01 | Nexturastat A 0.117 | vemurafenib -0.009 | [5] -0.015 | [6] -0.014 | givinostat -0.056 | barasertib -0.029 | [7] 0.195 | volasertib -0.085 | [8] -0.085 | epoxomicin 0.063 | [9] -0.013 | [10] -0.007 | [11] 0.018 | [12] 0.088

KLHL11 (UniProt Q9NVR0)
inactive: [1] 0.04 | [2] 0.139 | [3] -0.021 | [4] 0.06 | Nexturastat A 0.009 | vemurafenib -0.078 | [5] -0.001 | [6] 0.044 | givinostat -0.012 | barasertib -0.002 | [7] -0.104 | volasertib -0.062 | [8] -0.064 | epoxomicin -0.043 | [13] 0.099 | [9] 0.042 | [10] 0.018 | rosiglitazone 0.053 | [11] -0.04 | [12] -0.034

KCTD9 (UniProt Q7L273)
inactive: [1] -0.015 | [2] 0.001 | [3] -0.005 | [4] -0.001 | Nexturastat A -0.015 | vemurafenib 0.008 | [5] 0.028 | [6] 0.033 | givinostat 0.073 | barasertib 0.024 | [7] 0.01 | volasertib 0.005 | [8] 0.012 | epoxomicin 0.145 | [13] -0.07 | [9] -0.016 | [10] -0.032 | rosiglitazone -0.003 | [11] 0.046 | [12] 0.001

KSR1 (UniProt Q8IVT5)
inactive: [1] 0.231 | [2] -0.007 | [3] 0.112 | [4] -0.028 | Nexturastat A 0.001 | vemurafenib 0.046 | [5] 0.218 | [6] -0.132 | givinostat 0.106 | barasertib 0.013 | [7] -0.11 | volasertib -0.182 | [8] 0.179 | epoxomicin 0.047 | [9] 0.178 | [10] 0.009 | [11] -0.05
active: [12] -0.878

Quoted from the entries so far (2 entries):
KCTD9 (UniProt Q7L273)
inactive: [1] -0.015 | [2] 0.001 | [3] -0.005 | [4] -0.001 | Nexturastat A -0.015 | vemurafenib 0.008 | [5] 0.028 | [6] 0.033 | givinostat 0.073 | barasertib 0.024 | [7] 0.01 | volasertib 0.005 | [8] 0.012 | epoxomicin 0.145 | [13] -0.07 | [9] -0.016 | [10] -0.032 | rosiglitazone -0.003 | [11] 0.046 | [12] 0.001

KSR1 (UniProt Q8IVT5)
inactive: [1] 0.231 | [2] -0.007 | [3] 0.112 | [4] -0.028 | Nexturastat A 0.001 | vemurafenib 0.046 | [5] 0.218 | [6] -0.132 | givinostat 0.106 | barasertib 0.013 | [7] -0.11 | volasertib -0.182 | [8] 0.179 | epoxomicin 0.047 | [9] 0.178 | [10] 0.009 | [11] -0.05
active: [12] -0.878

Continuation:

KLC4 isoform 3 (UniProt Q9NSK0)
inactive: [1] 0.112 | [2] -0.05 | [3] 0.011 | [4] 0.101 | Nexturastat A 0.073 | vemurafenib -0.014 | [5] 0.04 | [6] 0.046 | givinostat 0.064 | barasertib 0.003 | [7] -0.009 | volasertib -0.035 | [8] 0.024 | epoxomicin 0.113 | [13] -0.085 | [9] -0.039 | [10] -0.01 | rosiglitazone -0.006 | [11] 0.003 | [12] -0.066

KCTD10 (UniProt Q9H3F6)
active: [12] 0.257
inactive: [1] -0.055 | [2] 0.022 | [3] -0.025 | [4] 0.017 | Nexturastat A 0.051 | vemurafenib -0.013 | [5] -0.029 | [6] 0.024 | givinostat 0.025 | barasertib 0.021 | [7] 0.046 | volasertib 0.022 | [8] 0.055 | epoxomicin -0.019 | [9] -0.01 | [10] 0.023 | [11] 0.003

JUNB (UniProt P17275)
inactive: [1] -0.099 | [2] 0.015 | [4] -0.087 | Nexturastat A 0.184 | vemurafenib 0.129 | [6] 0.138 | givinostat 0.176 | barasertib 0.03 | [7] 0.255 | [8] 0.04 | epoxomicin -0.07 | [13] 0.089 | [9] 0.005 | [10] -0.108 | rosiglitazone 0.002 | [12] 0.055

— the supplement of paper PMC10849652
